System: BAE cells
Experiment: Sub-cellular localisation by confocal fluorescence microscopy
Type: cell-based, bovine
Conditions: 50 μM, 1 h, Mitotracker Red counterstain

Compound | mitochondrial localisation / staining of cells
N[C@@H](CCC(=O)N[C@@H](CSCC(=O)Nc1ccc([As](=O)(O)O)cc1)C(=O)NCC(=O)O)C(=O)O [GSAA, 4-(N—((S-glutathionyl)acetyl)amino)-benzenearsonic acid, reference compound] | did not react with ANT or accumulate in mitochondria
O=[As]c1ccc(NC(=O)CSC[C@H](NC(=O)CC[C@H](NC(=O)CCCCCNC(=O)CCCCCNC(=O)CCCC[C@@H]2SC[C@@H]3NC(=O)N[C@@H]32)C(=O)O)C(=O)NCC(=O)O)cc1 (some centres unmarked) [GSAO-B, 4-(N—(S—(N-(6-((6-((biotinoyl)amino)hexanoyl)amino)hexanoyl)-glutathionyl)acetyl)amino) phenylarsenoxide] | Mitochondrial localisation was also seen

— patent US9353152B2, “Induction of the mitochondrial permeability transition” (NewSouth Innovations Pty Limited, priority 2002, dated 2016)
